PubChem BioAssay AID1159578, Peter MacCallum Cancer Centre | 2015

Aim: 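Knock-downs that alter how fast lymphatic endothelial cells migrate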 (primary screen)
System: human lymphatic endothelial cells
Reagent: siRNA pool against human genes, 40 nM
Time to read-out: 48 h after transfection
Measured: 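High-content imaging of dye-stained cells in a scratch assay measures filled wound area and nuclei per well; duplicate means given as ratio to mock and robust z-score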
Reading the numbers: migration robust z-score: higher = faster migration into the scratch; migration relative to mock: higher = more scratch area covered than mock; nuclei per well: higher = more cells in the well
Active means: 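Pools averaging fewer than 3300 nuclei are never called; remaining pools count as changed when migration robust z lies outside -2 to 2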
Calls: active = migration changed; inactive = no migration change, or too few cells
In all, the deposit lists about 18,000 reagents; below is a part drawn at random. About 1,030 of all reagents (5.7%) were called active. 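Inactive calls also include pools with fewer than 3300 nuclei, whose migration was not assessed.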 Raw values vary from plate to plate and are shown uncorrected. Unmarked entries are inactive. No sequences are given here.

no.	Target gene	PubChem SID	migration robust z-score	migration class with cell-count check	migration relative to mock	nuclei per well, duplicate mean
1	H4C2	SID255353509	0.18	migration z between -2 and 2; enough cells	0.94	6136
2	TPRN	SID255364913	0.65	migration z between -2 and 2; enough cells	1.05	5364
3	BCAS3	SID255358194	0.68	migration z between -2 and 2; enough cells	1.06	6090
4	DISC1	SID255356968	3.66 (active)	migration z above 2; enough cells	1.84	5095
5	EPM2AIP1	SID255354608	-0.48	migration z between -2 and 2; enough cells	0.76	4848
6	CYP26B1	SID255359091	-0.49	migration z between -2 and 2; enough cells	0.71	6994
7	MRPL52	SID255362556	-0.04	migration z between -2 and 2; enough cells	0.88	5840
8	HNRNPK	SID255350252	-0.02	migration z between -2 and 2; enough cells	0.88	5705
9	PTN	SID255351942	-0.91	migration z between -2 and 2; enough cells	0.63	4008
10	C11orf71	SID255358041	-1.25	migration z between -2 and 2; enough cells	0.56	6143
11	SNX20	SID255362614	-0.36	migration z between -2 and 2; enough cells	0.8	5684
12	DNPEP	SID255356321	-1.45	migration z between -2 and 2; enough cells	0.52	4150
13	CLPTM1	SID255348969	0.34	migration z between -2 and 2; enough cells	0.98	6168
14	PLPP5	SID255361386	0.78	migration z between -2 and 2; enough cells	0.96	7248
15	ARB2A	SID255361155	-2.82 (active)	migration z below -2; enough cells	0.17	4272
16	QTRT2	SID255360391	1.34	migration z between -2 and 2; enough cells	1.23	5851
17	DMP1	SID255349324	0.7	migration z between -2 and 2; enough cells	1.06	6269
18	GNAQ	SID255349938	-1.89	migration z between -2 and 2; enough cells	0.39	5110

The list goes on, starting with the last 4 of the part before.
no.	Target gene	PubChem SID	migration robust z-score	migration class with cell-count check	migration relative to mock	nuclei per well, duplicate mean
15	ARB2A	SID255361155	-2.82 (active)	migration z below -2; enough cells	0.17	4272
16	QTRT2	SID255360391	1.34	migration z between -2 and 2; enough cells	1.23	5851
17	DMP1	SID255349324	0.7	migration z between -2 and 2; enough cells	1.06	6269
18	GNAQ	SID255349938	-1.89	migration z between -2 and 2; enough cells	0.39	5110
19	MFHAS1	SID255354151	-0.39	migration z between -2 and 2; enough cells	0.73	5646
20	VPREB1	SID255353115	1.05	migration z between -2 and 2; enough cells	1.16	6762
21	CPOX	SID255349066	0.13	migration z between -2 and 2; enough cells	0.83	4404
22	NME1-NME2	SID255366158	0.68	migration z between -2 and 2; enough cells	1.06	5800
23	BBS1	SID255348509	-0.57	migration z between -2 and 2; enough cells	0.74	5917
24	ATP1A1	SID255348441	-0.38	migration z between -2 and 2; enough cells	0.73	4602
25	CAGE1	SID255364881	-0.18	migration z between -2 and 2; enough cells	0.84	4957
26	PDE12	SID255364086	2.66 (active)	migration z above 2; enough cells	1.57	6866
27	DAB1	SID255349226	1.29	migration z between -2 and 2; enough cells	1.06	5292
28	VAV2	SID255353093	0.44	migration z between -2 and 2; enough cells	0.89	6270
29	CEP126	SID255359471	-0.61	migration z between -2 and 2; enough cells	0.73	5832
30	HPF1	SID255358313	1.83	migration z between -2 and 2; enough cells	1.36	7276
31	RANBP9	SID255354765	1	migration z between -2 and 2; enough cells	1.15	5452
32	FBXO40	SID255357871	-1.27	migration z between -2 and 2; enough cells	0.56	5417
33	TXNDC2	SID255361241	0.36	migration z between -2 and 2; enough cells	0.88	4848
34	PLSCR3	SID255359242	-0.88	migration z between -2 and 2; enough cells	0.64	4348
35	TNFSF10	SID255353783	1.71	migration z between -2 and 2; enough cells	1.14	5860
36	GSK3B	SID255350065	0.78	migration z between -2 and 2; enough cells	0.96	6302
37	ZNF420	SID255363351	0.52	migration z between -2 and 2; enough cells	1.02	6624
38	PCCB	SID255351437	0.22	migration z between -2 and 2; enough cells	0.94	6892
39	PIK3IP1	SID255362204	-1.6	migration z between -2 and 2; enough cells	0.47	4808
